This passage reports binding results from paper PMC9256704.

The chains behind the UniProt entries cited, without tags or fusion partners. Where a name states a change or a piece, a line headed by the entry shows the natural chain unless it says otherwise.
UniProt P14618: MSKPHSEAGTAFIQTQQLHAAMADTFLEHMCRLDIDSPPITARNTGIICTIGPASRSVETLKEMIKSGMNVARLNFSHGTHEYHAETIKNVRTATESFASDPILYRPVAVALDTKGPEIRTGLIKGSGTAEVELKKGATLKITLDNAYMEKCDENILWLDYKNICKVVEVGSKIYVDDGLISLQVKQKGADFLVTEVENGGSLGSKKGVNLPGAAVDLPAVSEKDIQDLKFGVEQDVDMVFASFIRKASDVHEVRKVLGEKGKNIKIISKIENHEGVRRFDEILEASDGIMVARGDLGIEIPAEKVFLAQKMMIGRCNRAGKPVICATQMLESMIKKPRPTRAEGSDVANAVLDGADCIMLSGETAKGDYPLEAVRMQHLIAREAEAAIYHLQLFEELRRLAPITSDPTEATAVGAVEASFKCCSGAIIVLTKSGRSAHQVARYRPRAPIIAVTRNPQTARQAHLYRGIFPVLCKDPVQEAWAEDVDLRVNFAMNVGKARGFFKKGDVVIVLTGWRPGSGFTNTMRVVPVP

Experiment [1] deals with T1, TRIB2, endogenous (human (endogenous in A549)) (UniProt Q92519).
T1 sequence: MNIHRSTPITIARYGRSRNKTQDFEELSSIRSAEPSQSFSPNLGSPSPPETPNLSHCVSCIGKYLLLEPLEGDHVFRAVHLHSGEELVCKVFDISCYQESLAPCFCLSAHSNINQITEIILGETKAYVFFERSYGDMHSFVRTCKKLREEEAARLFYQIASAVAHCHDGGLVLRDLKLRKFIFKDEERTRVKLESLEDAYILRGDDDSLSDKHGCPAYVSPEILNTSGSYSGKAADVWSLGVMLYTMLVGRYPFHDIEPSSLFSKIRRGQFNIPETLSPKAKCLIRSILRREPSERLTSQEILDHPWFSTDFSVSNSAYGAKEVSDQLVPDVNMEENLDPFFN
The experiment can be described thus: co-IP; lysates of A549 cells (endogenous proteins, or GFP-TRIB2-overexpressed cells) incubated with primary antibodies or control IgG overnight at 4 °C, protein G/A beads 2 h at 4 °C; immunoblotting. In general terms: Immunoblotting shows a protein as a band on a membrane.

The target in the next experiment is T2, GST-TRIB2-A (1-308) (UniProt Q92519).
T2 sequence: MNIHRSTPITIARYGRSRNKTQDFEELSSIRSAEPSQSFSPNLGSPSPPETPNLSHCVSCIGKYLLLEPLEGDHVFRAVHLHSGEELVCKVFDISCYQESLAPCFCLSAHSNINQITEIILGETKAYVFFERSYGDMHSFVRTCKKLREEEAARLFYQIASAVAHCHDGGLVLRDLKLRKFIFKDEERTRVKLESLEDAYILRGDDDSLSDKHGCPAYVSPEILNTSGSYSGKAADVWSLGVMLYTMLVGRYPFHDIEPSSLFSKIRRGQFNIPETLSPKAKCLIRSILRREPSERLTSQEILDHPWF
The experiment can be described thus: pull-down; GST-fusion protein from E. coli bound to GST beads, incubated with cell lysates (A549, H1299 or other cells) for 4 h at 4 °C; adsorbed proteins by immunoblotting; the results call it Co-IP with anti-GST antibodies; only the target purified.

For another experiment, the target named is T3, GST-TRIB2-D (308–343) (UniProt Q92519).
T3 sequence: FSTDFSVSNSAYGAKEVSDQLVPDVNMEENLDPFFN
The experiment is described as above.

For another experiment, the target named is T4, GST-TRIB2-Full (UniProt Q92519).
T4 sequence: T1 sequence
The experiment is described as above.

Experiment [2] addresses T1, TRIB2, endogenous (human (endogenous in A549)). The experiment can be described thus: co-IP; GST-PKM2 deletion mutants induced by IPTG and incubated with lysates of A549 cells; Co-IP with TRIB2 antibodies (legend of Fig. 2K); only the binder purified.

No constants are given. Whether binding was seen depends on the method and setting. In cells and extracts the contact can be indirect. Some entries that bind do so weakly or less than the wild type. For some assays here: Where a sequence is shown, tags or fusion partners need not be part of it.

“PKM2 (M2 isoform of pyruvate kinase), endogenous (from UniProt P14618 1-531)”: the binding result (in experiment [1]; in the experiment with GST-TRIB2-A (1-308); with GST-TRIB2-D (308–343); in the experiment with GST-TRIB2-Full) was “binds” each time.

Turning to “GST-PKM2 (241–408) (from UniProt P14618 241-408) (domain or fragment)”, the binding result in experiment [2] was “binds”.
